Test results published in paper PMC2614481.

T1: Clr6p (S. pombe) (S. pombe) (UniProt O59702)
T1 sequence: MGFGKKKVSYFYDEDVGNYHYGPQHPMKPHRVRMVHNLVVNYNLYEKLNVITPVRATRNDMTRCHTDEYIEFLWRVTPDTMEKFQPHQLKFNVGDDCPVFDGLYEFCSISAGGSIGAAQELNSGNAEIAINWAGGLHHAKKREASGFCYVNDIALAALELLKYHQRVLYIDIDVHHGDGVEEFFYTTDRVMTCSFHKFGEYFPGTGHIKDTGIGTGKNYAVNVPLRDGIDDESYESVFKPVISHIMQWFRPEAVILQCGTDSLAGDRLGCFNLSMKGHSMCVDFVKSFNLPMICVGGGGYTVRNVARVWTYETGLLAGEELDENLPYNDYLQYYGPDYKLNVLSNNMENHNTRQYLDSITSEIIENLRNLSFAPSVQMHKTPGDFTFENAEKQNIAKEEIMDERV

T2: Sp_Alp13p (S. pombe) (UniProt O13953)
T2 sequence: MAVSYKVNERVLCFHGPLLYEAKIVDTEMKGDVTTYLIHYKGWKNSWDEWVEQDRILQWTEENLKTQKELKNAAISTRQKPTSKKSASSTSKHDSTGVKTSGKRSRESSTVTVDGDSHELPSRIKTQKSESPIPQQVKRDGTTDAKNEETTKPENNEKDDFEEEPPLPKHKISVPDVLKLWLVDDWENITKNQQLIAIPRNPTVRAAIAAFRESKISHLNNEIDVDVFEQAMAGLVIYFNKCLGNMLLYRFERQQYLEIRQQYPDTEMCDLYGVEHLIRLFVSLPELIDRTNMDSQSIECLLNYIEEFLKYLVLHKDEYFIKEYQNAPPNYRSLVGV

T3: Sp_Png2 (S. pombe) (UniProt O74736)
T3 sequence: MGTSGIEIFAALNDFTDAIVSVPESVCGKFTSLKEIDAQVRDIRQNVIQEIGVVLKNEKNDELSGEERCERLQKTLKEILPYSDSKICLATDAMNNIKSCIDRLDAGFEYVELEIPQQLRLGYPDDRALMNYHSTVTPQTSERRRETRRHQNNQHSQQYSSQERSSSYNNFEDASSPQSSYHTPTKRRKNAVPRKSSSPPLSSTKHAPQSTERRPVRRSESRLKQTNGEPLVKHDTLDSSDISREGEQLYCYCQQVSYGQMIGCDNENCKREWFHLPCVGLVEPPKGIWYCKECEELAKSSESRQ


Key:
Experiment in all cases: affinity purification with mass spectrometry; TAP of baits TAP-tagged at their genes from S. pombe extracts; eluates on 6-18% gels, Coomassie, bands and slices identified by MALDI peptide mapping and LC-MS/MS; common background removed, A-index cut-off 1.75
[1] = molecular target: T1, Clr6p (S. pombe) (S. pombe)
Sp_Alp13p (S. pombe) = molecular target: T2, Sp_Alp13p (S. pombe)
Sp_Png2 (S. pombe) = molecular target: T3, Sp_Png2 (S. pombe)

Binder | binding [1] | binding (Sp_Alp13p (S. pombe)) | binding (Sp_Png2 (S. pombe))
Sp_Prw1p (protein, UniProt O14021 1-431) MAVSAVPHPSKQAQASEEGINQEKCINEEYKIWKKNSPFLYDLIITRALEWPCMSLQWYPEQQIFAEHGYTEQKMFLGVRADVGKYLLAVASIQLPYLNQTVPPTTMEGASAGDESSLRVNISNLYSHPESVCSAKLMPQDDSCVATVGNYHNDVLVFDKESFESYSSASESPLKPKYRLTKHTQPCTSVCWNFLSKGTLVSGSQDATLSCWDLNAYNESDSASVLKVHISSHEKQVSDVRFHYKHQDLLASVSYDQYLHVHDIRRPDASTKPARSVHAHSGPIHSVAFNPHNDFILATCSTDKTIALWDLRNLNQRLHTLEGHEDIVTKISFSPHEEPILASTSADRRTLVWDLSRIGEDQPAEEAQDGPPELLFMHGGHTSCTIDMDWCPNYNWTMATAAEDNILQIWTPSRSIWGNEQLEEDATAYLS | binds |  | binds
SDS3 (S. pombe) (protein, UniProt Q9UTB6 1-267) MDVLSRVFDNEKEELDPLLNNPLTASEFRAKKAELEAELESIRNGTCKTLLDLADELRRSRDEELEIAERWRTFLVNRAQEEYEVEMKAAKEEYEYRCKTLKEMVLSHLNEKKRKIYEAKDMFDIGSESSTLLLHDASSQFIDRRKLRHRRNAGNQQNTQQLPSLNFFDDYLLFPTDETAVIPQSVKNAVRNSVNSVKPTSAEASLFSPLLSMANANPTNGRERDPRASERAERDREKAVEKGLSGATEEDIQSDLQLLKKELAKKK | binds |  | binds
Sp_Cti6p (protein, UniProt Q1MTR4 1-424) MPSNSTPANEEKEEESEKIQKSPVDTPHTPNGSVSDNEENETSSTGEVTRCVCGIVESDDEASDGGLYIQCDQCSVWQHGNCVGFADESEVPEVYYCEICHPEFHKVYQRGRGAKQSKYLGNGKPIEASQTEESSSTPPSPATKKSSKQRLTMNSRDAALDYEEYLAIAKEKSLIPRRSRGRTSSKSLSPPAPQDESQGTEINLKQKIEEENDEILEDSKESKDENEENKETSTTNVAETDAPEEETVDTVEEIADEEKHSVKEESGEASPQSSQQSTITSISTTTRSTRKAKREAAAEDKADLPAAVAPKPSKTRKVGGRRGKSSSNDNHRIPQLHPDGTFVETITKPKGLHSRITMTEMRRRVASMLEYIGHIQVEMAAQSAGNQSSTKSSKEGPEEEKETLRMVDNLTRDLLHWEQRFSRT | binds |  | binds
Sp_Dep1p (protein, UniProt Q9P7M1 1-491) MTENLQSESIPHEILPKEPFDLPMNNLKSSPKNKDSEKRINNSIAESEQVVDSALSNPETNANEDIIAPQLPSQNSEIIEKNSPVNKLNSSTSLTTHQLASLPKLEVTDHDNVSEAETVVLNEDEEKETSLVGSVSVTEDLGDSSAIGRTILVNNSVEPQMENTANITIVSPSLKESDFESEEKATNDNNGLIETNHNSKLEESSEHEEEEDEESNIERTEDSDHQIPQRGGTLEAPRKGGPRSGVGSRKRKRATVSRKWSTNSESKIKRVALETSQEESDREIADRRSASEQAHEADDEKAIKRKEAFDALLNIETEFTFLRNRLYGKKLLKLNEHEEMIQNETHERFNACIDLITERRDDRVRLATENLMKQLGNIKNVMDYVTKQRKYQLLFDKRRIRQALLTKIATKCFQLLNKQKSVHDPTYITQKTMSYRQSALLQKQRIEYEAAVLCELNSFAGFPTAPIIETASFDDIRNDLLEMGCLSENQD | binds |  | binds
LAF1 (S. pombe) (protein, UniProt O13719 1-297) MKSSQTLVYSIPRNVEKDTCAAAIKAYQYLISPPPSPIPNDKVASTVDVPKCSTIPESPKDSIVEPKPTATPVAQLHSKVYDLYRDSPKIWLRRERQWLQRHSPAYRFSTPAAKRPRRQPSSFLDVHASNTRKRGSPDTPDSGHSTPHSKGDVHPGMPQHNTRFKQSSREFSSNTQAIDVANTPYELLPDYSPDMSVLDKRSHPRPLRSEWKGPPLDLSNDENRHLLHPAELQLAATLRLPCLVYLDNKRRIFAEWHNRRTQGLSFRKTDAQRASRVDVNKASRLWKAFHDEGFFDD | binds |  | binds

The next lines start with the values.

binding [1] | binding (Sp_Alp13p (S. pombe)) | binding (Sp_Png2 (S. pombe)) | Binder
binds | binds |  | Sp_Pst2p (protein, UniProt O13919 1-1075) MEQTLAILKNDNSTLVAEMQNQLVHDFSPNGTALPELDIKAFVQKLGQRLCHRPYVYSAFMDVVKALHNEIVDFPGFIERISVILRDYPDLLEYLNIFLPSSYKYLLSNSGANFTLQFTTPSGPVSTPSTYVATYNDLPCTYHRAIGFVSRVRRALLSNPEQFFKLQDSLRKFKNSECSLSELQTIVTSLLAEHPSLAHEFHNFLPSSIFFGSKPPLGSFPLRGIQSSQFTLSNISDLLSQSRPDNLSPFSHLSNESSDFFKNVKNVLTDVETYHEFLKLLNLYVQGIIDRNILVSRGFGFLKSNSGLWRSFLSLTSLSPEEFLSVYNSACSDFPECGPSYRLLPVEERNISCSGRDDFAWGILNDDWVSHPTWASEESGFIVQRKTPYEEAMTKLEEERYEFDRHIEATSWTIKSLKKIQNRINELPEEERETYTLEEGLGLPSKSIYKKTIKLVYTSEHAEEMFKALERMPCLTLPLVISRLEEKNEEWKSVKRSLQPGWRSIEFKNYDKSLDSQCVYFKARDKKNVSSKFLLAEADILRSQAKLHFPLRSRSAFEFSFVYDNEIVLFDTCYMVCTYIVCNSPSGLKKVEHFFKNILPLHFGLEKDKFSIFLDQVFRGPDYDVNAPNIVGNKPVRRKRSNSITQLTEFVKQPKINGQRESRSAAAARKKEESGNKSQSNSQNSLSDESGNVTPVSKKQLSQPAAAIKASLKYPSHPDSLLEHQDHAGDTENEMHDDVDKEQFGYSSMYVFFRLFNLLYERLYELQRLEDQVSIIQQRIIPNPVSQKQKIWRDRWNDLSDVPDEKTHYENTYVMILRLIYGIVDQSAFEDYLRFYYGNKAYKIYTIDKLVWSAAKQVHHIVSDGKYKFVTSLVEQNSSASPKKNYDDFLYRLEIEKLLNPDEILFRFCWINKFKSFGIKIMKRANLIVDQSLDTQRRVWKKYVQNYRIQKLTEEISYKNYRCPFLCRNIEKERTVEQLVSRLQTKLLRSAELVSGLQAKLCLDSFKLLYLPRTEDSYIDASYLRLRDTDFLDCQNKRKQRWRNRWESLLKSVRGTSDNTAEVNFDADINALFIP
binds |  | binds | Sp_Pst3p (protein, UniProt O74755 1-1154) MDVMNVPVDSERDNPGDKVETQSDKNHLPKASPSQSQSPVNTSLHNGDGKDNGVATEPVENKQILSERSVTRDDYEKGKTIVSSLALSSISGKDGSISSQNAEGLSSSSNRPLDVNDALSYLELVKYYFSERREIYNRFLEIMRDFKSQALDTLGVINRVSELFNGYPQLIEGFNTFLPSGYKIEVQLDSSNTSVVRVGTPMHPLPQQGVQSTLPVAPSNEDQRTMESTSPTDSQPQPSAPNLVSSTENEKPRVDFNYAIAYMNKVKARYPPNSDTYMEFLGVLRTYQKAQKSIFEVRARVAEIFKDSPDLLEEFKLFLPDNVDSTEPSTPNVQKSPNRLPPVGNFSLPPSAPVREKRNRPAHSAQISRSISKTSRMYRQTAEEPLNSYSLHVYPQKITAPTSPYAATQEELLAFTTIRQHLPDTLAFHKFLELLHLYREKLLDKTELLNSFSKLVRNDNLTLWFSEFIRWSDNPILVKNEPVDERVYLPETFECISLTYRKLPDSWKQDKCSGRDDLDNSVLNDDYISVAPKPSHVKNIMHHENQYLQALQLVEDERYDYDRVLNTTESAIKILANFCEPTIHEHLETALQELERSKRIIKNALIIVYGKEHANLALDTLFKKLPTAAPVLLKRIKTKDQEWRRSKREWSKIWRQIEKKNAQAAFDDRYCRIEGRDRRGLSYSRILRDIDDIYQRQKHRIDGAKLGFQFTQVLCDSLIFLNILRLSDAQLTNSSFYSYADKGRISAVLKALLSQFFGIPLPREALETNLASENIESVKKHRDGLSKIFIRPESADNSNNTNVSFQTDETQTEDETMSDIHPDDVENHSKSKFLGEESKNIIGYNFFGNATMYVLFRLICVCYSRLEHIKLFVESSTIYASSTGGYENILNICEKYLKGSCSRLEFRKYLQKFNNETCYMICSIERLLKVIFYRIHEILLDPKLGQLLLLFESDGANSVTTPREQMVYRNHVESILAPESKIFNMRWYPLEKRLCIQQLLPADLTMHDFENPAKAFMYYVDSYAISHITEGVDLMQVKMPFLRRSLQRISQQGYLAGRGSGRLHSLFNEHFCKSNLQLFFSTDTYVIFFEPNTENVYINSYNLWVDQSSQSKKQNRTTNWRRWLESDEGWRKSKANTDIKFFSETTLDQCIEAM
binds |  | binds | Sp_Rxt3p (protein, UniProt O94707 1-351) MEEKTPENEQSKKTFDPKDSMKIEETSTNGSSQPSQPSNIKLSIGSILESSNDNGDPEYSENGMGNMNMNTLPMATSTPMSYTKQPSEAKYPNSVWERKGVSDQEENTSSVKRQKTLPTQSSGEEEAKYSHPGAPTATSADSISMESRPSNLSTSLSKTTSYPQFQVRQFVSPIISIDNSALEPFLNRYPASESLFPVTEYEYTPWLEFPLLYSSIGKFVRVTIDIKWLNAAINPRLCRREIWGTDVYTDDSDIATILAHCGCFSLLKPVRKIAVVDLYILPPLVHYKGTRKNQIESRSWSSRQDGISLKIKEVTWKPACASIFENSIHTLTLEERLQARLELSRSSTFKI

Results are given in words; binding and its absence hold for the method and conditions named. In cells and extracts the contact can be indirect. A yes stands for co-enrichment or nearness to the bait. Other partners may have been found.
